No constants are given. Whether binding was seen depends on the method and setting. Tags and fused reporters may be left off the sequences shown.
Target: T1, GST-Ist2[590–946] (S. cerevisiae) (UniProt P38250)
T1 sequence: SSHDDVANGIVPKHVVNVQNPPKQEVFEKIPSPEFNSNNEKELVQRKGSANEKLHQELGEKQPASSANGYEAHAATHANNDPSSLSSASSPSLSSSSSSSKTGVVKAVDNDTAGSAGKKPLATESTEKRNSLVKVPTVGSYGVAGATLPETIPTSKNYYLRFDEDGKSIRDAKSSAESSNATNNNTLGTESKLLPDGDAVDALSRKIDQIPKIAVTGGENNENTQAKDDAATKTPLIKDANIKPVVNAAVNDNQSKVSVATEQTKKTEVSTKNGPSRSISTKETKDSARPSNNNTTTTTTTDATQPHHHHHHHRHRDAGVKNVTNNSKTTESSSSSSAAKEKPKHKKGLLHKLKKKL
Experiment: pull-down; GST constructs ([…]) immobilised on Glutathione Sepharose 4B beads; Osh6, its mutants, Osh4, ORD^Osh3 or ORD^ORP8 added at […]; 50 mM tris pH 7.4, 120 mM NaCl, 1 mM MgCl2, 1% TX-100, 1 mM DTT, 10% glycerol; 25°C, 1 hour; bound fraction by SDS-PAGE; both purified

B1: ORD^Osh3 (Osh3[605–996]) (domain or fragment, UniProt P38713 605-996)
chain: SAQSSTETFTSKDLFALSYPKSVTRRNDIPEAAASPPSLLSFLRKNVGKDLSSIAMPVTSNEPISILQLISETFEYAPLLTKATQRPDPITFVSAFAISFLSIYRDKTRTLRKPFNPLLAETFELIREDMGFRLISEKVSHRPPVFAFFAEHLDWECSYTVTPSQKFWGKSIELNNEGILRLKFKTTGELFEWTQPTTILKNLIAGERYMEPVNEFEVHSSKGDKSHILFDKAGMFSGRSEGFKVSIIPPPSSNRKKETLAGKWTQSLANETTHETIWEVGDLVSNPKKKYGFTKFTANLNEITEIEKGNLPPTDSRLRPDIRAYEEGNVDKAEEWKLKLEQLQRERRNKGQDVEPKYFEKVSKNEWKYITGPKSYWERRKKHDWSDISQLW
binding: no binding (tested: 2.5 μM)

Reference: PMC12617493 (Science Advances, 2025)
